From publication PMC6911077 come the findings set out here.

By UniProt entry, the sequences of proteins in these tests, tags left out.
UniProt P78527: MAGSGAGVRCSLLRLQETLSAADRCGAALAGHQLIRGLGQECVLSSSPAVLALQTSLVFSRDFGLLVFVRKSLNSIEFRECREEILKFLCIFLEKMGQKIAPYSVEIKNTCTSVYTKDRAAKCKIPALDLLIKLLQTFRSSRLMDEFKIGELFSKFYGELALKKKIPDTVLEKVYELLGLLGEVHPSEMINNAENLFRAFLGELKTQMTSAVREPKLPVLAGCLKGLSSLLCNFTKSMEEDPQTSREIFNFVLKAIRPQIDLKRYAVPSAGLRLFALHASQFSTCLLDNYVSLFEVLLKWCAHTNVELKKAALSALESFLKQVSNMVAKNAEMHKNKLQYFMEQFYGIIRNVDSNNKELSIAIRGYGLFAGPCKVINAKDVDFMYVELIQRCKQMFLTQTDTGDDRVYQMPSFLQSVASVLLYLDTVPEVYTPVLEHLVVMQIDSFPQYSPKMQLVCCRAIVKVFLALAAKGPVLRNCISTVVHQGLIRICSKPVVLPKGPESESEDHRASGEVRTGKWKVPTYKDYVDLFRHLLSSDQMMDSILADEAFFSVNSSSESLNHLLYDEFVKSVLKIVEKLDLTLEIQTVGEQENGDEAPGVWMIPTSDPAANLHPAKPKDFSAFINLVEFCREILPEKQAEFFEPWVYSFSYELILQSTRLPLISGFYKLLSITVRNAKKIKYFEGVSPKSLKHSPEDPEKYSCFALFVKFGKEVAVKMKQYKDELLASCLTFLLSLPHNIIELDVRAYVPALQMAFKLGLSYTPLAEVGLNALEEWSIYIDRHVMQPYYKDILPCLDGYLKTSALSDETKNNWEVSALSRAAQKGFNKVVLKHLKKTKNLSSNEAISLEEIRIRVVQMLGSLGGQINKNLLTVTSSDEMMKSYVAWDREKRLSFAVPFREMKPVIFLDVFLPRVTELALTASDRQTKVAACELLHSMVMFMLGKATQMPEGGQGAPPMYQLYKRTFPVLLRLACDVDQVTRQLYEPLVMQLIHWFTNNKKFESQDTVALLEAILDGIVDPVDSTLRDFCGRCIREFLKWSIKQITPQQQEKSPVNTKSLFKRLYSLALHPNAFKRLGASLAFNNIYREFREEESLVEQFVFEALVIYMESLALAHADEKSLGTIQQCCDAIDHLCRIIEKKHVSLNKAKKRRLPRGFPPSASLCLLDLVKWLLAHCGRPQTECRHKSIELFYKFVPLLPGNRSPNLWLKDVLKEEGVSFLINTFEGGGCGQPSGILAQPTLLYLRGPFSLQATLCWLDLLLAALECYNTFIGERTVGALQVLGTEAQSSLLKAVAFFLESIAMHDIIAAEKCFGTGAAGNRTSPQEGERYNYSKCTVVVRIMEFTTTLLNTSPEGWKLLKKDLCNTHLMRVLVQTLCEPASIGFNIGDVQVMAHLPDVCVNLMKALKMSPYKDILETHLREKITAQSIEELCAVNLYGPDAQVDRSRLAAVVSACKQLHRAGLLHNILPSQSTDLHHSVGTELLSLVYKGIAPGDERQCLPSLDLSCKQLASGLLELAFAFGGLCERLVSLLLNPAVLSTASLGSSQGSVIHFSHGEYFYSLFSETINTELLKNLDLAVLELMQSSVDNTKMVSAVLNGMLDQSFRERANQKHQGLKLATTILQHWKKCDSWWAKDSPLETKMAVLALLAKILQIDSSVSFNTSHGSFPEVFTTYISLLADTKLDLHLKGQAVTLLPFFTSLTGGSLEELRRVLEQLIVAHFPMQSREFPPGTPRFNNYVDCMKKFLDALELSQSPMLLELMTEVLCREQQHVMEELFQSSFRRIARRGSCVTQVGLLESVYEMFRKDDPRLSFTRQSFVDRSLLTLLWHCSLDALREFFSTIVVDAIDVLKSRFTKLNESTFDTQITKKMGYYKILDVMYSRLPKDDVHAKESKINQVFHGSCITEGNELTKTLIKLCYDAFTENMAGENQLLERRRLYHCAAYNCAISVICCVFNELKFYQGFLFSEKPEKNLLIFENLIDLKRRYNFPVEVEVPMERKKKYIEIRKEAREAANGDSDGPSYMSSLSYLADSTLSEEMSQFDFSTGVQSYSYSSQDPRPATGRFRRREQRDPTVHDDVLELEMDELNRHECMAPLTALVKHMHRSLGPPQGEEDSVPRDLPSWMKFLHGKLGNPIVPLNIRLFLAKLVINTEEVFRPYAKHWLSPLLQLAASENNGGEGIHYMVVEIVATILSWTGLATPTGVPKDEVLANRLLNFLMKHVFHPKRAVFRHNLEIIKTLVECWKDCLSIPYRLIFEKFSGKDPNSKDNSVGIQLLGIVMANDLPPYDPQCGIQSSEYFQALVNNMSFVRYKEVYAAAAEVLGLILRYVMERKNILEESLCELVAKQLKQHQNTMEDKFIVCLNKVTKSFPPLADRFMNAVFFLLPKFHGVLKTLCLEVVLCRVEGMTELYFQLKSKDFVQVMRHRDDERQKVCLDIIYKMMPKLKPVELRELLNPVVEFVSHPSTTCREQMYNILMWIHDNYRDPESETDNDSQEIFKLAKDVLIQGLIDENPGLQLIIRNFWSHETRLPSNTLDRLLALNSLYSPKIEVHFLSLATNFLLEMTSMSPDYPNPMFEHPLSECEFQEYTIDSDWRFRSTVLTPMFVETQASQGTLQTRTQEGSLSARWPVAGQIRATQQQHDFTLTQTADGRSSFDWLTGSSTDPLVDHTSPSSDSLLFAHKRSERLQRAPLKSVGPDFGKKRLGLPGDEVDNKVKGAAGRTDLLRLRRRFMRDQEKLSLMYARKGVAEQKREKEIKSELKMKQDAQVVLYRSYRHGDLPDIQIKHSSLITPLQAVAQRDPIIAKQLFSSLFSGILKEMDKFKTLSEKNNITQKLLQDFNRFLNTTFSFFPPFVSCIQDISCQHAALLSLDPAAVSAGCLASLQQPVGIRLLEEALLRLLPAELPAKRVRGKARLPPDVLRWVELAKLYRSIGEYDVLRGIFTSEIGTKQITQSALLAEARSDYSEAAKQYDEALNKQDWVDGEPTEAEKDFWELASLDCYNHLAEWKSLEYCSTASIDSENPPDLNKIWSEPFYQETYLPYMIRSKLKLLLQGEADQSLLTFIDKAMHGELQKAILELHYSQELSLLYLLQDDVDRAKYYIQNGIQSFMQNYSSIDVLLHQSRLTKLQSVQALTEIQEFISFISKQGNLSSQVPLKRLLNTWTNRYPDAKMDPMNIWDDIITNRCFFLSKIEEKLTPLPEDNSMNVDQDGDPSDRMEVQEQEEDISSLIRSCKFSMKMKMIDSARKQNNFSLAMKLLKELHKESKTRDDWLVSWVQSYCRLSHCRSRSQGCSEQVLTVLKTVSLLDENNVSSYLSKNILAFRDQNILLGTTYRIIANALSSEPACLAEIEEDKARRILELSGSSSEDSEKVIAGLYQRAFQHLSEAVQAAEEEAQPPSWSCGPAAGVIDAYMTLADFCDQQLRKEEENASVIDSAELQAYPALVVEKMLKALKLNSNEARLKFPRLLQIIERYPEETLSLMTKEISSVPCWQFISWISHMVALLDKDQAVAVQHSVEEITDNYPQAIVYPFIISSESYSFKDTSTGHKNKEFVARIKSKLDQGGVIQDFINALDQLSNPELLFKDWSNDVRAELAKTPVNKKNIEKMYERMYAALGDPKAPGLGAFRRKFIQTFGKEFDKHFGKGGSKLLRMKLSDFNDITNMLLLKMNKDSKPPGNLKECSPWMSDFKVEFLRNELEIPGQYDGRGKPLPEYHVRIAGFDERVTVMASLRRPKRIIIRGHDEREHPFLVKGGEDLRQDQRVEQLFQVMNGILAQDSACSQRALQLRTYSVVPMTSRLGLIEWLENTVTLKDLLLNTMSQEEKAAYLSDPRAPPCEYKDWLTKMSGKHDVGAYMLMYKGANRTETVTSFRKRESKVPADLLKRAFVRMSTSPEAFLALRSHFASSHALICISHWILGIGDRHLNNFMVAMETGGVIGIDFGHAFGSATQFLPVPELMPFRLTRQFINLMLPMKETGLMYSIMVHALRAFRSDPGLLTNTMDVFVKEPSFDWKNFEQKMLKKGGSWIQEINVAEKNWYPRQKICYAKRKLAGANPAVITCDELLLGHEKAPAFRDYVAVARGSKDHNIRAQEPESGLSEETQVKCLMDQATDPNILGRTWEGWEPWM
UniProt Q92878: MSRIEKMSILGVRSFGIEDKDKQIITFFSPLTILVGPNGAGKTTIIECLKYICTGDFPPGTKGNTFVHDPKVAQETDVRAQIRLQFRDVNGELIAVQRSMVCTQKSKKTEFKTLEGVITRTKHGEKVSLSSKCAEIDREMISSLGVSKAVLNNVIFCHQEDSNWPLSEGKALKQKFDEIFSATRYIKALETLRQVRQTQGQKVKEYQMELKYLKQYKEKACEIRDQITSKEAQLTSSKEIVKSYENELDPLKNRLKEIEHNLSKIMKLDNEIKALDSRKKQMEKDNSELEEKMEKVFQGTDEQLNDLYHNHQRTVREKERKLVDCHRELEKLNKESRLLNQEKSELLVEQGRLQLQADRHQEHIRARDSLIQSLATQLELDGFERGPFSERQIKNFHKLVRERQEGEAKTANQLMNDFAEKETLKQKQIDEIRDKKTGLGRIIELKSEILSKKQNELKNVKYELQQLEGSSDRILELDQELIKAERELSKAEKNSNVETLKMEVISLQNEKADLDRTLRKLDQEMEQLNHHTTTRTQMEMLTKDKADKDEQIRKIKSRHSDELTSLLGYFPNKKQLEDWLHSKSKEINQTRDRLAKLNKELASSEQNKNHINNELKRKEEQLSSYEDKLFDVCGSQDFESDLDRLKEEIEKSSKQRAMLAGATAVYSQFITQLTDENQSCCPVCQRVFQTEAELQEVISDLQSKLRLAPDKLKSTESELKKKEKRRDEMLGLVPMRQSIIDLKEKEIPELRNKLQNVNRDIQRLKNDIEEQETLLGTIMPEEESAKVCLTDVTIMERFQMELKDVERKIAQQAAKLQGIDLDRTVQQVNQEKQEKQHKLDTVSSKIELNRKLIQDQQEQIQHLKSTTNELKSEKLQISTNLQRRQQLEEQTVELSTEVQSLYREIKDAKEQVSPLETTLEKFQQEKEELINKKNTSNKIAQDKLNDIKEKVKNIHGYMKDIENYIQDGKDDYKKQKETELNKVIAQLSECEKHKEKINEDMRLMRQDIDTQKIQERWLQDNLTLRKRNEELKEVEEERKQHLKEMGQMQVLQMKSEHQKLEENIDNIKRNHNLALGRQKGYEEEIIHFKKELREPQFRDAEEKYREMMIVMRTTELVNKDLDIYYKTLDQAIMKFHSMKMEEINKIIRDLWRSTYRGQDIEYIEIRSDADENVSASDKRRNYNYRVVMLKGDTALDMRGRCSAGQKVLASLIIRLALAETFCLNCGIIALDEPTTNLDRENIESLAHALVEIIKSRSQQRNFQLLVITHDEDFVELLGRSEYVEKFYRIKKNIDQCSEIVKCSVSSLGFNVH

The assay addresses T1, Flag-RAP1 (human) (UniProt Q9NYB0).
T1 sequence: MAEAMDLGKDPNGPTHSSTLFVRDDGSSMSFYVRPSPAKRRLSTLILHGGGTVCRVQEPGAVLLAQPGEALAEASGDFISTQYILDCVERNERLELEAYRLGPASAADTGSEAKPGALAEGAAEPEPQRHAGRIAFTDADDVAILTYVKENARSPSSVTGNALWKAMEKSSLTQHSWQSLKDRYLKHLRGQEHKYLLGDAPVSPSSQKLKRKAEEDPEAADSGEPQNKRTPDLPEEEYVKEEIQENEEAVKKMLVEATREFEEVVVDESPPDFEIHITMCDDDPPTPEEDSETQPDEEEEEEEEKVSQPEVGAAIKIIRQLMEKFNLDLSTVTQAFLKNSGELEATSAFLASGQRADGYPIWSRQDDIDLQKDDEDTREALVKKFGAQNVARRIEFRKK
In words: affinity purification with mass spectrometry; SILAC-MS using Flag-RAP1-expressing 293T cells; proteins with SILAC ratios >3 taken.

These are yes or no findings as the source states them, for the method shown. Binding seen in cells or lysates may run through a third protein. A yes stands for co-enrichment or nearness to the bait. Other partners may have been found. Sequences can lack the tags named with a protein.

With DNA-PK (from UniProt P78527 1-4128), the binding entry is “binds”.

As for Rad50 (from UniProt Q92878 1-1312), the binding result is listed as “binds”.
